Experimental data taken from the supplement of paper PMC10849652.
The list shows a part of the results.

By UniProt entry, the sequences of proteins in these tests, tags left out. Where a name states a change or a piece, a line headed by the entry shows the natural chain unless it says otherwise.
UniProt Q14151: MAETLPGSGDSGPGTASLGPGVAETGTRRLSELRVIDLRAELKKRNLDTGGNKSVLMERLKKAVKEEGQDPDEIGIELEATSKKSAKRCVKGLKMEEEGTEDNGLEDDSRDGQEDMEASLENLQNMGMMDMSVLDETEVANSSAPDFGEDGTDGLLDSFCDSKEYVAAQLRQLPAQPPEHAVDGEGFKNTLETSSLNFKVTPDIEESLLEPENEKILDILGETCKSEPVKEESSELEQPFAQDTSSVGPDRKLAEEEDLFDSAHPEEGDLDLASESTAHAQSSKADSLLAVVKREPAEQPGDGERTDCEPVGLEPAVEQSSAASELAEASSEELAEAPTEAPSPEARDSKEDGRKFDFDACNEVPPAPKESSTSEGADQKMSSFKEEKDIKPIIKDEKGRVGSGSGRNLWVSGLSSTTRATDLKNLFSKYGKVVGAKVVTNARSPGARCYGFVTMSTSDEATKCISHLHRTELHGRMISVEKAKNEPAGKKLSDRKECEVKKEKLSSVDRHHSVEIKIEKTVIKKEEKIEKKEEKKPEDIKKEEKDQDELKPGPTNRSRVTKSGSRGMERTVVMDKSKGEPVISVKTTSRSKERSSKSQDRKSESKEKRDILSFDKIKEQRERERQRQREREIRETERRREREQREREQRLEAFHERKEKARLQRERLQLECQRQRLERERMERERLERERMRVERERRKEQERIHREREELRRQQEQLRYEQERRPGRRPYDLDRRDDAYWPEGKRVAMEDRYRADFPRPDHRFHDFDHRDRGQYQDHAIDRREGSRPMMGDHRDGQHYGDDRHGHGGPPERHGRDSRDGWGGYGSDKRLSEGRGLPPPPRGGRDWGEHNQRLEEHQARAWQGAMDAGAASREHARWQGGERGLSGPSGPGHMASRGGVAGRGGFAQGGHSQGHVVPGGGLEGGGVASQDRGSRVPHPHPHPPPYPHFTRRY
UniProt O94885: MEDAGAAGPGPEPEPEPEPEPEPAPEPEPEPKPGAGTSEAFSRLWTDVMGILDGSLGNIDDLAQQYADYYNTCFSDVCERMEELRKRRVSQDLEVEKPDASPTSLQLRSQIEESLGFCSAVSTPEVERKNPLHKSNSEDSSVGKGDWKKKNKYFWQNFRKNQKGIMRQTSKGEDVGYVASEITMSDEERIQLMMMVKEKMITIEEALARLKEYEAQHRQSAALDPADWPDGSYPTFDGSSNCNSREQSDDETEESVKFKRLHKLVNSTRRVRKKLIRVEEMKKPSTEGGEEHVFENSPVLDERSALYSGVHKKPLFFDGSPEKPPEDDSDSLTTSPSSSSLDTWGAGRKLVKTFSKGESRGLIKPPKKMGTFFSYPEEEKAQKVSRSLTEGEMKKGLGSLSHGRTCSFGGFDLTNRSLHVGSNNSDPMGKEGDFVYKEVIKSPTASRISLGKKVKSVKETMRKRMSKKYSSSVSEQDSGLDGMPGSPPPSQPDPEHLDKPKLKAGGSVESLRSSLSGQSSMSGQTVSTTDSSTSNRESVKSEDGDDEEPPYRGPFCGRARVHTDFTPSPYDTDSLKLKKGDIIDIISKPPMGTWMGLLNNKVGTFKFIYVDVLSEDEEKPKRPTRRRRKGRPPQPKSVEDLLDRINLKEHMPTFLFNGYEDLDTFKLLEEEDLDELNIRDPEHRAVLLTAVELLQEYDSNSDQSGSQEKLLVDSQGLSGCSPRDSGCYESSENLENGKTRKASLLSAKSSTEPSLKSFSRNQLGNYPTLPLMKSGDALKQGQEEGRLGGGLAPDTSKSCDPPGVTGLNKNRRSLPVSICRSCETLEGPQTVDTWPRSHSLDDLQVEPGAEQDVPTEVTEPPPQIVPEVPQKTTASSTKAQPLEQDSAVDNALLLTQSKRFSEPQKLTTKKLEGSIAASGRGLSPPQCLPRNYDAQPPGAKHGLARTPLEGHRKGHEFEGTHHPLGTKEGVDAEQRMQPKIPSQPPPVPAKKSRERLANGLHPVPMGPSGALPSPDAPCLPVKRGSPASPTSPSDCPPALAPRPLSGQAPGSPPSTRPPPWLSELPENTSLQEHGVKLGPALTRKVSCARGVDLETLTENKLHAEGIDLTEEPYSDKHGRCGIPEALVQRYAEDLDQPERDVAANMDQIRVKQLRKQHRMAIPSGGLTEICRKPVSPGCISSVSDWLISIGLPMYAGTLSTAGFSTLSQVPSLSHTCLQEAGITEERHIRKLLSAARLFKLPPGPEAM
UniProt P29034: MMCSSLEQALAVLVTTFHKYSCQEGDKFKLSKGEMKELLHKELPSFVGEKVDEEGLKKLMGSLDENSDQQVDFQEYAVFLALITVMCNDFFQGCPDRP
UniProt Q14160: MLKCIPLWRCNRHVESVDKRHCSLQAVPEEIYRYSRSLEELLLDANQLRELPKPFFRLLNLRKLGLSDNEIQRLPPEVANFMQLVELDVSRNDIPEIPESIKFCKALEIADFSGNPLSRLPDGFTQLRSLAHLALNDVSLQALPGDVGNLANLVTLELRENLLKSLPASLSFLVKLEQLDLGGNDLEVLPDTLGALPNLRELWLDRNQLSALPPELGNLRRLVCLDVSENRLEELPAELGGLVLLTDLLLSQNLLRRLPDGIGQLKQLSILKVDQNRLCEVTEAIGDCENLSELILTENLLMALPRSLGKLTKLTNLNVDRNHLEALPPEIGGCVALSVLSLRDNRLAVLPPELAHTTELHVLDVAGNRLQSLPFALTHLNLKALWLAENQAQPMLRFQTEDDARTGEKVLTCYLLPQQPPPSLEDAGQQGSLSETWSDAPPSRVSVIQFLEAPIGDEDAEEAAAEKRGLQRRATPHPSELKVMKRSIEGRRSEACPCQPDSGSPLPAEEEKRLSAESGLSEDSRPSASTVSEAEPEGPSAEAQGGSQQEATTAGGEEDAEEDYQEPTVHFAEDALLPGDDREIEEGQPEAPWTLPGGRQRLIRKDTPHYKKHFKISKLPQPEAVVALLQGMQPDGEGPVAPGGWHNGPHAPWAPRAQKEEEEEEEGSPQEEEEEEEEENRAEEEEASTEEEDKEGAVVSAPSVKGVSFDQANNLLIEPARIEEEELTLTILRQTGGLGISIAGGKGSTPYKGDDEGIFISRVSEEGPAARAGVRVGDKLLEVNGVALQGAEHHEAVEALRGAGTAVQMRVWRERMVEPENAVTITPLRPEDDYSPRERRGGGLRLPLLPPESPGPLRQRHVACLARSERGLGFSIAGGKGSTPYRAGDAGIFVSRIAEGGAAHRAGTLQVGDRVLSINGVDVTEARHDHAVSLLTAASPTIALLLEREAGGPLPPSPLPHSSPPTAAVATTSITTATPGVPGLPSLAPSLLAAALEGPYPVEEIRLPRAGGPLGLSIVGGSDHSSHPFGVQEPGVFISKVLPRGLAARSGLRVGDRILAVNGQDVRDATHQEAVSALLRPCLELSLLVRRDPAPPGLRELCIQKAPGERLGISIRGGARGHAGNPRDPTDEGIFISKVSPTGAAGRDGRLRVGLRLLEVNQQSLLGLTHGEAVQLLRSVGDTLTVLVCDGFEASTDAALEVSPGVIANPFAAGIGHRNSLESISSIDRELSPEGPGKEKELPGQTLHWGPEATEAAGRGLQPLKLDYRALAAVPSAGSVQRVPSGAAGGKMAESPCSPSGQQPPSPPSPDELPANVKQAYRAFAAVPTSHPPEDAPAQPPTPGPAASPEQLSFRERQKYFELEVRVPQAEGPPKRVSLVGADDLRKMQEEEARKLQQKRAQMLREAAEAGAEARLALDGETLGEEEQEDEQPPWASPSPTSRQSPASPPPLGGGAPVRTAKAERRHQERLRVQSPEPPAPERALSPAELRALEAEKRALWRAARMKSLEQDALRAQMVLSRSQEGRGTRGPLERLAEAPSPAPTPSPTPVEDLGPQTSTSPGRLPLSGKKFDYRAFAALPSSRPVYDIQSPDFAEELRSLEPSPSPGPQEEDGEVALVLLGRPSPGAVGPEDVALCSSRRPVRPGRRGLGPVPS
UniProt Q9NX18: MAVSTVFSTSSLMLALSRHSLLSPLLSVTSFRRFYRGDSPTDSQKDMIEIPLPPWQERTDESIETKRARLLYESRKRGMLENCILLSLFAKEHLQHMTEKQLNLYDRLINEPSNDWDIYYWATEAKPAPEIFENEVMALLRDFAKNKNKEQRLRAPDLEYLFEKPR
UniProt O43818: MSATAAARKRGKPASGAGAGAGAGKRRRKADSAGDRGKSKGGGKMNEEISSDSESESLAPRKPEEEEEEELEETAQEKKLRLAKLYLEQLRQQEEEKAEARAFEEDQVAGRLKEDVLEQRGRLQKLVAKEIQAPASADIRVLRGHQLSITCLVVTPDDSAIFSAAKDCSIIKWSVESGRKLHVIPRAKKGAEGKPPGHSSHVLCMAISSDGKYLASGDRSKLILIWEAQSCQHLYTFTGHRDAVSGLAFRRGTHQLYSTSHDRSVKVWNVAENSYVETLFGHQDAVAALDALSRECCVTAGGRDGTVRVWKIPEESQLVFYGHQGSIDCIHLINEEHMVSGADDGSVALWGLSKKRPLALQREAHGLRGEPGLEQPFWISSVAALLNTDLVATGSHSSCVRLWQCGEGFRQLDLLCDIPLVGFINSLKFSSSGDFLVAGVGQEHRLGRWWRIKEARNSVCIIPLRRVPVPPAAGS
UniProt Q86SQ7: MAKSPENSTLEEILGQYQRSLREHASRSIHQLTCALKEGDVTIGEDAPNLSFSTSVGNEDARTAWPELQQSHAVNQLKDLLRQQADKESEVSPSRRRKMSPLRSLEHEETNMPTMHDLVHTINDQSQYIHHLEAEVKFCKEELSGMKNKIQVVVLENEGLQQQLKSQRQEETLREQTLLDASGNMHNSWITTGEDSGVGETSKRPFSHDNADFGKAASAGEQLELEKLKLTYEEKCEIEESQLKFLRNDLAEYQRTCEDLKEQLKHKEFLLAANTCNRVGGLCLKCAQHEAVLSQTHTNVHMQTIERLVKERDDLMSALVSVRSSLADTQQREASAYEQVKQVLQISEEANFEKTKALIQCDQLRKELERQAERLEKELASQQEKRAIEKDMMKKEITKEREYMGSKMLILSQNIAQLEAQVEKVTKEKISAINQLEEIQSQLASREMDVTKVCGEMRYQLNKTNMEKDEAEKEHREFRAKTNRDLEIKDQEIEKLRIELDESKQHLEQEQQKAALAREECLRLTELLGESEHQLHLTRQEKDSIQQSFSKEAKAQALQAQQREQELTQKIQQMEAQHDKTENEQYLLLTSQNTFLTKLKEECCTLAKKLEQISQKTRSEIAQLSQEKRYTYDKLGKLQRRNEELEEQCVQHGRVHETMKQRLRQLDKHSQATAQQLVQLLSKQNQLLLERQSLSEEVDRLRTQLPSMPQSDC
UniProt Q15436: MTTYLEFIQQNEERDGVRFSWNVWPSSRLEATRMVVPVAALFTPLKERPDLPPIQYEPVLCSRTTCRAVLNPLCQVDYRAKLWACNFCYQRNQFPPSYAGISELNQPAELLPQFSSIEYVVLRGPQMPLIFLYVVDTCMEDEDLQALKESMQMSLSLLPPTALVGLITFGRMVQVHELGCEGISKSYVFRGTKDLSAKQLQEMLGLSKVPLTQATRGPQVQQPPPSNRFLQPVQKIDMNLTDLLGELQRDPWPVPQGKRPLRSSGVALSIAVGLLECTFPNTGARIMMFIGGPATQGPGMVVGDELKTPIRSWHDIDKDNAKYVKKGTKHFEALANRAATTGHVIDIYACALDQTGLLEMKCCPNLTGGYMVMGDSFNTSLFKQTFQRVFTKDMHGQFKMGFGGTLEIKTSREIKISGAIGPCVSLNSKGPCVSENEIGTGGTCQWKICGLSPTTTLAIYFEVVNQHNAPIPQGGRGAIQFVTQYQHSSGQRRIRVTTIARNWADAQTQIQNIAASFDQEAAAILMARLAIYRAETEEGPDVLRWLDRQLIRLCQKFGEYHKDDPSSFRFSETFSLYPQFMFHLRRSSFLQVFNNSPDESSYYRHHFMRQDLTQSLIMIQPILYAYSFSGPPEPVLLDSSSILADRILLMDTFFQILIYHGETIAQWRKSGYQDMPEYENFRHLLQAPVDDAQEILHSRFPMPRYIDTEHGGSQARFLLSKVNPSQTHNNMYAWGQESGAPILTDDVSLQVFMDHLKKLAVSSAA

Tests used:
Assay in all cases: log2 fold change, soluble protein after heating vs DMSO (PISA); higher = thermal stabilisation; K562 cells, 10 uM, 30 min; active = over 0.2 and 3.5 SD of the protein, either way, in both replicates (recomputed)
saracatinib = compound: CN1CCN(CCOc2cc(OC3CCOCC3)c3c(Nc4c(Cl)ccc5c4OCO5)ncnc3c2)CC1 [saracatinib]
Outline: (§1)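 Thermal stability values are relative to control samples and come from duplicates. They are expressed as log2 fold changes. For measurement, K562 cells (2×10^6 cells/mL) received 10 μM compound for 30 min, and aliquots were heated for 3 min over 48°C-58°C, pooled, and extracted at 4°C in PBS with 0.5% NP-40. Soluble protein, the supernatant after 21,000xg for 90 min, was quantified by TMTpro 16plex LC-MS/MS with equalised channel sums.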

sotrastaurin = compound: CN1CCN(c2nc(C3=C(c4c[nH]c5ccccc45)C(=O)NC3=O)c3ccccc3n2)CC1 [sotrastaurin]
Outline: as §1

Tubastatin A = compound: CN1CCc2c(c3ccccc3n2Cc2ccc(C(=O)NO)cc2)C1 [Tubastatin A]
Outline: as §1

[1] = compound: CNC(=O)C1=CC=CC=C1NC2=NC(=NC=C2Cl)NC3=C(C=C(C=C3)N4CCOCC4)OC
Outline: as §1

defactinib = compound: CNC(=O)c1ccc(Nc2ncc(C(F)(F)F)c(NCc3nccnc3N(C)S(C)(=O)=O)n2)cc1 [defactinib]
Outline: as §1

rucaparib = compound: CNCc1ccc(-c2[nH]c3cc(F)cc4c3c2CCNC4=O)cc1 [rucaparib]
Outline: as §1

[2] = compound: CNc1nc(-c2ccc3c(N)n[nH]c3c2)cc(N2C[C@@H](C(=O)NC3CCCCC3)CC[C@H]2C)n1
Outline: as §1

encorafenib = compound: COC(=O)N[C@@H](C)CNc1nccc(-c2cn(C(C)C)nc2-c2cc(Cl)cc(NS(C)(=O)=O)c2F)n1 [encorafenib]
Outline: as §1

[3] = compound: COC(=O)[C@H](CCSC)NC(=O)C1=C(C=C(C=C1)NC[C@H](CS)N)C2=CC=CC=C2
Outline: as §1

[4] = compound: COC1=CC=C(C=C1)CN2C=CC3=C2C=C(C=C3)C(=O)NO
Outline: as §1

filanesib = compound: CON(C)C(=O)N1N=C(c2cc(F)ccc2F)S[C@@]1(CCCN)c1ccccc1 [filanesib]
Outline: as §1

zotarolimus = compound: CO[C@H]1C[C@@H]2CC[C@@H](C)[C@@](O)(O2)C(=O)C(=O)N2CCCC[C@H]2C(=O)O[C@H]([C@H](C)C[C@@H]2CC[C@H](n3cnnn3)[C@H](OC)C2)CC(=O)[C@H](C)/C=C(\C)[C@@H](O)[C@@H](OC)C(=O)[C@H](C)C[C@H](C)/C=C/C=C/C=C/1C [zotarolimus]
Outline: as §1

idasanutlin = compound: COc1cc(C(=O)O)ccc1NC(=O)[C@@H]1N[C@@H](CC(C)(C)C)[C@](C#N)(c2ccc(Cl)cc2F)[C@H]1c1cccc(Cl)c1F [idasanutlin]
Outline: as §1

alisertib = compound: COc1cc(Nc2ncc3c(n2)-c2ccc(Cl)cc2C(c2c(F)cccc2OC)=NC3)ccc1C(=O)O [alisertib]
Outline: as §1

[5] = compound: COc1cc2nc(-c3cc(F)ccc3O)nc(N[C@@H]3CNC[C@H]3C(C)(C)O)c2cc1OC
Outline: as §1

gefitinib = compound: COc1cc2ncnc(Nc3ccc(F)c(Cl)c3)c2cc1OCCCN1CCOCC1 [gefitinib]
Outline: as §1

[6] = compound: COc1cccc2cc(-c3nc([C@H]4CC[C@H](C(=O)O)CC4)n4ncnc(N)c34)[nH]c12
Outline: as §1

lapatinib = compound: CS(=O)(=O)CCNCc1ccc(-c2ccc3ncnc(Nc4ccc(OCc5cccc(F)c5)c(Cl)c4)c3c2)o1 [lapatinib]
Outline: as §1

pictilisib = compound: CS(=O)(=O)N1CCN(Cc2cc3nc(-c4cccc5[nH]ncc45)nc(N4CCOCC4)c3s2)CC1 [pictilisib]
Outline: as §1

alvocidib = compound: CN1CC[C@H](c2c(O)cc(O)c3c(=O)cc(-c4ccccc4Cl)oc23)[C@H](O)C1 [alvocidib]
Outline: as §1

Target | log2 fold change (saracatinib) | log2 fold change (sotrastaurin) | log2 fold change (Tubastatin A) | log2 fold change [1] | log2 fold change (defactinib) | log2 fold change (rucaparib) | log2 fold change [2] | log2 fold change (encorafenib) | log2 fold change [3] | log2 fold change [4] | log2 fold change (filanesib) | log2 fold change (zotarolimus) | log2 fold change (idasanutlin) | log2 fold change (alisertib) | log2 fold change [5] | log2 fold change (gefitinib) | log2 fold change [6] | log2 fold change (lapatinib) | log2 fold change (pictilisib) | log2 fold change (alvocidib)
SAFB2 (UniProt Q14151) | inactive: -0.055 | inactive: -0.028 | inactive: -0.048 | inactive: -0.022 | inactive: 0.144 | inactive: 0.1 | inactive: -0.067 | inactive: 0.029 | inactive: -0.005 | inactive: -0.044 | active: 0.409 | inactive: 0.017 | inactive: 0.085 | inactive: -0.045 | inactive: -0.046 | inactive: 0 | inactive: -0.037 | inactive: 0.048 | inactive: -0.032 | 
RTN4 isoform 5 (UniProt Q9NQC3) | inactive: 0.05 |  | inactive: 0.064 | inactive: 0.169 | inactive: -0.085 | inactive: 0.078 | inactive: 0.033 | inactive: -0.259 | inactive: 0.077 | inactive: -0.095 |  | inactive: 0.027 | inactive: 0.027 |  | inactive: -0.049 | inactive: 0.09 |  | inactive: 0.01 | inactive: -0.03 | inactive: -0.06
SASH1 (UniProt O94885) | inactive: -0.081 | inactive: -0.043 | inactive: 0.04 | inactive: -0.019 | inactive: -0.064 | inactive: 0.03 | inactive: -0.015 | inactive: 0.013 | inactive: -0.022 | inactive: -0.059 | inactive: -0.074 | inactive: -0.04 | inactive: -0.05 | inactive: 0.009 | inactive: -0.161 | inactive: 0.015 | inactive: -0.015 | inactive: -0.013 | inactive: 0.073 | 
S100A2 (UniProt P29034) | inactive: -0.034 |  | inactive: 0.426 | inactive: 0.034 | inactive: -0.254 | inactive: 0.061 | inactive: -0.039 | inactive: -0.145 | inactive: -0.093 |  |  | inactive: 0.048 | inactive: -0.176 | inactive: 0.731 | inactive: 0.258 | inactive: 0.572 | inactive: -0.083 | inactive: -0.041 |  | inactive: -0.066
SCRIB isoform 3 (UniProt Q14160) | inactive: 0.094 |  | inactive: 0.101 | inactive: -0.273 |  |  | inactive: -0.056 |  |  | inactive: -0.223 |  | inactive: -0.152 |  | inactive: 0.389 |  |  | inactive: -0.461 |  | inactive: -0.021 | inactive: 0.039
SDHAF2 (UniProt Q9NX18) | inactive: 0.08 | inactive: -0.035 | inactive: 0.037 | inactive: 0.016 | inactive: -0.002 | inactive: 0.115 | inactive: -0.078 | inactive: -0.003 | inactive: 0.01 | inactive: 0.063 | inactive: -0.03 | inactive: 0.068 | inactive: -0.085 | inactive: 0.02 | inactive: -0.163 | inactive: 0.09 | inactive: 0.102 | inactive: -0.013 | inactive: 0.091 | 
RRP9 (UniProt O43818) | inactive: 0.08 | inactive: 0.044 | inactive: 0 | inactive: -0.069 | inactive: -0.075 | inactive: 0.019 | inactive: -0.094 | inactive: -0.005 | inactive: 0.042 | inactive: -0.011 | inactive: 0.143 | inactive: -0.059 | inactive: 0.171 | inactive: -0.14 | inactive: -0.061 | inactive: 0.027 | inactive: 0.047 | inactive: 0.037 | inactive: -0.04 | 
SDCCAG8 (UniProt Q86SQ7) | inactive: 0.067 | inactive: -0.197 | inactive: 0.037 | inactive: 0.209 | inactive: -0.12 | inactive: 0.172 | inactive: -0.121 | inactive: 0.028 | inactive: 0 | inactive: 0.119 | inactive: -0.076 |  | inactive: 0.008 |  | inactive: 0.085 |  |  | inactive: -0.082 | inactive: -0.212 | 
RRP1B (UniProt Q14684) | inactive: 0.041 | inactive: 0.125 | inactive: 0.005 | inactive: 0.123 | inactive: 0.137 | inactive: -0.078 | inactive: -0.323 | inactive: 0.079 | inactive: -0.008 | inactive: 0.066 | inactive: -0.036 |  |  | inactive: -0.078 |  |  | inactive: -0.004 |  | inactive: -0.186 | 
SEC23A (UniProt Q15436) | inactive: 0.133 | inactive: 0.008 | inactive: -0.008 | inactive: -0.019 | inactive: -0.078 | active: 0.296 | inactive: 0.037 | inactive: -0.171 | inactive: -0.035 | inactive: 0.024 | inactive: 0.013 | inactive: 0.025 | inactive: -0.026 | inactive: -0.027 | inactive: 0.043 | inactive: 0.007 | inactive: 0.01 | inactive: -0.045 | inactive: 0.049 | 

In a second layout: entries from further up.
Target,log2 fold change (saracatinib),log2 fold change (sotrastaurin),log2 fold change (Tubastatin A),log2 fold change [1],log2 fold change (defactinib),log2 fold change (rucaparib),log2 fold change [2],log2 fold change (encorafenib),log2 fold change [3],log2 fold change [4],log2 fold change (filanesib),log2 fold change (zotarolimus),log2 fold change (idasanutlin),log2 fold change (alisertib),log2 fold change [5],log2 fold change (gefitinib),log2 fold change [6],log2 fold change (lapatinib),log2 fold change (pictilisib),log2 fold change (alvocidib)
SAFB2 (UniProt Q14151),inactive: -0.055,inactive: -0.028,inactive: -0.048,inactive: -0.022,inactive: 0.144,inactive: 0.1,inactive: -0.067,inactive: 0.029,inactive: -0.005,inactive: -0.044,active: 0.409,inactive: 0.017,inactive: 0.085,inactive: -0.045,inactive: -0.046,inactive: 0,inactive: -0.037,inactive: 0.048,inactive: -0.032,
RTN4 isoform 5 (UniProt Q9NQC3),inactive: 0.05,,inactive: 0.064,inactive: 0.169,inactive: -0.085,inactive: 0.078,inactive: 0.033,inactive: -0.259,inactive: 0.077,inactive: -0.095,,inactive: 0.027,inactive: 0.027,,inactive: -0.049,inactive: 0.09,,inactive: 0.01,inactive: -0.03,inactive: -0.06
